The subject of test [1] is MEPP (mouse ovarian epithelium Trp53/Pten KO). Put plainly: cell viability relative to untreated (fraction); higher = less growth inhibition. Particulars: 5 µM; 3 days.
Test [2] concerns PREPP (mouse prostate epithelium Trp53/Pten KO). Described as above. Particulars: 5 µM; 3 days.

“And” between values parts separate entries of the source, which are not always exact repeats. Identical values can stand only once. The list shows a part of the results. Many values rest on one well or one pass, so single values are uncertain.

For the compound `COc1ccc(CCc2nc3cc(-c4c(C)noc4C)ccc3n2C[C@H](C)N2CCOCC2)cc1Cl`, the cell viability stood at 0.745 in test [1] and 0.789 in test [2].

In the case of `CCn1c(-c2nonc2N)nc2c(C#CC(C)(C)O)ncc(OC[C@H]3CCCNC3)c21`, the values for the cell viability in test [1] and in test [2] were 0.646 and 0.762, respectively.

Regarding `Cc1nc(C(=O)NCC(=O)O)c(O)c2ccc(Oc3ccccc3)cc12`, the cell viability in test [1] is 0.843; in test [2], 0.885.

With `CC[C@@](C)(Nc1ccnc(-c2c[nH]c3ncccc23)n1)C(=O)NCC(F)(F)F`, the cell viability in test [1] was determined as 0.957; in test [2], 0.966.

As to `N#Cc1ccc(-c2csc(NN=C3CCCC3)n2)cc1`, the cell viability in test [1] stood at 1.15; in test [2], 0.976.

Take `O=C(Nc1ccc(CN2CCOCC2)cc1)c1ccc(-c2cccc(Cl)c2)o1`: the cell viability in test [1] is 0.962; in test [2], 1.

For `CC(C)c1c(-c2ccccc2)nc2c(C#N)c[nH]n2c1=O`, the cell viability stood at 1.16 in test [1] and 1.11 in test [2].

With `Cc1cn(CCN2CCN(c3ccccc3-c3cc(C#N)cc(C(=O)NCCCN4CCCC4)c3)CC2)c2ccccc12`, the cell viability in test [1] stood at 1.02; in test [2], 1.03.

Consider `Cc1nc(-c2cccnc2)sc1C(=O)Nc1ccccc1-c1cn2c(CN3CCOCC3)csc2n1`, for which the cell viability in test [1] came out at 1.05; in test [2], 0.796.

Regarding `C[C@H](NC(=O)CCc1nc2ccccc2c(=O)[nH]1)c1ccccc1`, the cell viability in test [1] is 0.915; in test [2] it was 0.973.

`Cc1cnc(Nc2ccc(N3CCN(C)CC3)cc2)nc1Nc1cccc(S(=O)(=O)NC(C)(C)C)c1`: the figures for the cell viability in test [1] and in test [2] were 0.883 and 0.572, respectively.

Take `O=C(Nc1ccccc1-c1cn2c(CN3CCNCC3)csc2n1)c1cnc2ccccc2n1`: the cell viability in test [1] is 0.211; in test [2], 0.229.

As to `Nc1ccccc1NC(=O)CCCCCCC(=O)Nc1ccccc1`, the cell viability in test [1] is 1.03; in test [2], 0.878.

`CN1C/C=C/CCOc2cccc(c2)-c2ccnc(n2)Nc2cccc(c2)C1`: the values for the cell viability in test [1] and in test [2] were 0.381 and 0.707, respectively.

Turning to `O=C(O)c1ccc(O)c2ncccc12`, the cell viability in test [1] was 0.979; in test [2], 1.02.

Regarding `C#CCC(CCCCCC)C(=O)O` (configuration not stated), the cell viability was found to be 0.96 in test [1] and 0.982 in test [2].

For the compound `Cc1cc(C)cc(C(=O)NOCCCCCC(=O)NO)c1`, the cell viability in test [1] was determined as 0.539; in test [2], 0.566.

For the compound `Nc1nc(Nc2ccc(S(N)(=O)=O)cc2)nn1C(=O)c1c(F)cccc1F`, the values for the cell viability in test [1] and in test [2] were 0.749 and 0.7, respectively.

As for `CCCOc1ccc(CCc2nc3cc(-c4c(C)noc4C)ccc3n2CCN2CCOCC2)cc1`, the cell viability in test [1] amounted to 0.772; in test [2] it was 0.677.

With `O=C1NC(=O)/C(=C/c2cccc(C(F)(F)F)c2)S1`, the cell viability turned out to be 0.78 in test [1] and 0.795 in test [2].

For `Cc1nc(N)sc1-c1ccnc(Nc2ccc(N3CCOCC3)cc2)n1`, the cell viability in test [1] amounted to 0.689; in test [2] it was 0.421.

`O=C(O)[C@]1(Cc2cccc(Nc3nccs3)n2)CC[C@@H](Oc2cccc(Cl)c2F)CC1`: the cell viability in test [1] is 0.593; in test [2], 0.747.

Regarding `O=C1c2c(O)ccc(O)c2C(=O)c2c(NCCNCCO)ccc(NCCNCCO)c21`, the values for the cell viability in test [1] and in test [2] were 0.299 and 0.373, respectively.

On to `CCn1c(C(=O)N(C2CC2)C2CC2)cc2c3c(ncn3C)c(Nc3cc(C)n(C)n3)nc21`, for which the cell viability was found to be 0.677 in test [1] and 0.626 in test [2].

Turning to `NC1CCCN(c2c(/C=C3/SC(=O)NC3=O)cccc2-c2ccccc2)C1` (configuration not stated), the cell viability in test [1] stood at 0.913; in test [2], 0.802.

For the compound `CN(C)Cc1ccc(-c2nc3cccc4c3n2CCNC4=O)cc1`, the cell viability was 0.955 in test [1] and 0.926 in test [2].

As to `CN1CCc2c(c3ccccc3n2Cc2ccc(C(=O)NO)cc2)C1`, the cell viability is 0.865 and 0.957 in test [1]; 0.826 and 0.75 in test [2].

`CN(C)CCCCC(=O)Nc1ccc(NC(=S)NC(=O)c2ccc(C(C)(C)C)cc2)cc1`: the cell viability in test [1] was 0.286; in test [2] it was 0.89.

With `CN(C)CC(=O)Nc1ccc2[nH]c(=O)c3ccccc3c2c1`, the figures for the cell viability in test [1] and in test [2] were 0.792 and 0.856, respectively.

`COc1ccc(-n2c(SCCCN3C(=O)c4cccc5cccc(c45)C3=O)nnc2-c2ccncc2)cc1`: the cell viability in test [1] was 0.787; in test [2] it was 0.994.

`O=C(c1ccc(Cl)cc1Cl)n1nnc2ccccc21`: the cell viability is 1.08 in test [1] and 0.871 in test [2].

On to `Nc1ccccc1NC(=O)c1ccc(CNc2nccc(-c3cccnc3)n2)cc1`, for which the cell viability in test [1] worked out at 0.707; in test [2], 0.729.

Take `O=C(c1cncc(Br)c1)N1CCC(N2CCCC2)CC1`: the cell viability in test [1] came to 1.02; in test [2], 0.946.

Turning to `CCS(=O)(=O)N1CCN(c2ccc(Nc3ncc(C(N)=O)c(NC4CC4)n3)cc2)CC1`, the cell viability in test [1] was found to be 0.912; in test [2], 0.694.

With `COc1cc2ncnc(Nc3ccc(O)cc3)c2cc1OC`, the cell viability in test [1] came out at 0.932; in test [2], 0.843.

Take `N[C@H]1CC[C@H](N[C@@H]2C[C@H]2c2ccccc2)CC1`: the cell viability in test [1] worked out at 0.885; in test [2], 0.891.

With `CNCc1ccc(-c2[nH]c3cc(F)cc4c3c2CCNC4=O)cc1`, the cell viability in test [1] is 0.923 and 0.847; in test [2], 0.816 and 0.83.

In the case of `N#C/C(=C\c1ccc(O)c(O)c1)C(=O)NCc1ccccc1`, the figures for the cell viability in test [1] and in test [2] were 0.865 and 0.828, respectively.

Take `COc1cc2c(NC3CCN(C(C)C)CC3)nc(N3CCC(F)(F)CC3)nc2cc1OCCCN1CCCC1`: the cell viability in test [1] was 1.04; in test [2], 0.978.

Take `Cc1cc(Nc2cc(N3CCN(C)CC3)nc(Sc3ccc(NC(=O)C4CC4)cc3)n2)n[nH]1`: the cell viability in test [1] came to 0.642; in test [2], 0.68.

On to `CCN(CC)Cc1cc(Nc2ccnc3cc(Cl)ccc23)ccc1O`, for which the cell viability in test [1] turned out to be 0.925; in test [2], 0.885.

The values are drawn from the supplement of paper PMC12873370.
